The list shows only some results of the screen, not a fair sample: it gathers tests that were run many times, whatever their T/C, doses with no T/C, and many T/C values between a quarter and a half above the control. Other doses and runs of a compound stand elsewhere. T/C is the treated group as % of the vehicle group. Some entries give survivors of the animals treated and no T/C: the source files T/C as zero there, which appears to mark a toxic dose or a test without result, not a measured value. Some survivor counts are full or nearly so, which does not show that the dose was tolerated: survival well below the control is almost never listed, so the zero probably covers shortened survival too. Counts of survivors are from the toxicity check (mostly the fifth day) where no day follows; animals may have died later. Schedule codes are those of the source, taken here to give the interval after Q, in days (D) or hours (H), and the number of doses after X. Some schedule codes hold Z or #, which are not explained here. Some molecules as drawn cover several salts, stereoisomers or complexes of the source; a dose is that of the sample tested. Some entries hold several experiments; their values stand side by side, smallest first. For survival time, the PubChem record calls one and a half times the control and up active, and a quarter to a half above the control has no call in these data; cut-offs in other NCI protocols can differ. Some T/C values are followed by the survivors on the day toxicity was checked, most often the fifth; without a count, all were alive then.
Test system: L1210 leukemia ip in BDF1 mice, survival T/C
Assay: NCI In Vivo Anticancer Drug Screen. Data for tumor model L1210 Leukemia (intraperitoneal) in B6D2F1 (BDF1) mice
Settings: T/C endpoint: mean survival time, higher T/C = longer survival
[1] = dose: 400.0 mg/kg/injection, schedule: Q01DX009 (ip), vehicle: Klucel (hydroxypropylcellulose) (HPC)
[2] = dose: 40.0 mg/kg/injection, schedule: Q01DX001 (ip), vehicle: saline
[3] = dose: 50.0 mg/kg/injection, schedule: Q01DX001 (ip), vehicle: saline
[4] = dose: 80.0 mg/kg/injection, schedule: Q01DX001 (ip), vehicle: saline
[5] = dose: 100.0 mg/kg/injection, schedule: Q01DX001 (ip), vehicle: saline
[6] = dose: 200.0 mg/kg/injection, schedule: Q01DX001 (ip), vehicle: saline
[7] = dose: 400.0 mg/kg/injection, schedule: Q01DX001 (ip), vehicle: saline
[8] = dose: 200.0 mg/kg/injection, schedule: Q01DX009 (ip), vehicle: Klucel (hydroxypropylcellulose) (HPC)
[9] = dose: 100.0 mg/kg/injection, schedule: Q04DX003 (ip), vehicle: saline
[10] = dose: 50.0 mg/kg/injection, schedule: Q04DX002 (ip), vehicle: Klucel (hydroxypropylcellulose) (HPC)
[11] = dose: 100.0 mg/kg/injection, schedule: Q04DX002 (ip), vehicle: Klucel (hydroxypropylcellulose) (HPC)
[12] = dose: 200.0 mg/kg/injection, schedule: Q04DX002 (ip), vehicle: Klucel (hydroxypropylcellulose) (HPC)
[13] = dose: 400.0 mg/kg/injection, schedule: Q04DX002 (ip), vehicle: Klucel (hydroxypropylcellulose) (HPC)
[14] = dose: 400.0 mg/kg/injection, schedule: Q01DX009 (ip), vehicle: saline
[15] = dose: 200.0 mg/kg/injection, schedule: Q04DX003 (ip), vehicle: saline with Tween-80
[16] = dose: 400.0 mg/kg/injection, schedule: Q04DX003 (ip), vehicle: saline with Tween-80
[17] = dose: 12.5 mg/kg/injection, schedule: Q01DX009 (ip), vehicle: Klucel (hydroxypropylcellulose) (HPC)
[18] = dose: 400.0 mg/kg/injection, schedule: Q04DX003 (ip), vehicle: Klucel (hydroxypropylcellulose) (HPC)

COC(=O)CCc1c[nH]c2ccc(N(CCCl)CCCl)cc12
T/C (dose: 3.0 mg/kg/injection, schedule: Q01DX015 (ip), vehicle: carboxymethylcellulose (CMC)): 143 % of control
T/C (dose: 3.8 mg/kg/injection, schedule: Q01DX009 (ip), vehicle: other): 131 % of control [5 of 6 alive]
T/C (dose: 6.0 mg/kg/injection, schedule: Q01DX015 (ip), vehicle: carboxymethylcellulose (CMC)): 142 % of control
T/C (dose: 7.5 mg/kg/injection, schedule: Q01DX009 (ip), vehicle: other): 141 % of control
T/C (dose: 12.0 mg/kg/injection, schedule: Q01DX015 (ip), vehicle: carboxymethylcellulose (CMC)): 134 % of control
T/C (dose: 15.0 mg/kg/injection, schedule: Q04DX003 (ip), vehicle: saline): 139 % of control [5 of 6 alive]
survivor count (dose: 24.0 mg/kg/injection, schedule: Q01DX015 (ip), vehicle: carboxymethylcellulose (CMC)): 5 of 6
survivor count (dose: 48.0 mg/kg/injection, schedule: Q01DX015 (ip), vehicle: carboxymethylcellulose (CMC)): 3 of 6
survivor count (dose: 50.0 mg/kg/injection, schedule: Q01DX001 (ip), vehicle: carboxymethylcellulose (CMC)): 4 of 4
survivor count (dose: 60.0 mg/kg/injection, schedule: Q04DX003 (ip), vehicle: saline): 3 of 6
survivor count (dose: 90.0 mg/kg/injection, schedule: Q04DX003 (ip), vehicle: saline): 2 of 6
survivor count (dose: 100.0 mg/kg/injection, schedule: Q01DX001 (ip), vehicle: carboxymethylcellulose (CMC)): 2 of 4
survivor count (dose: 120.0 mg/kg/injection, schedule: Q04DX003 (ip), vehicle: saline): 4 of 6
survivor count (dose: 180.0 mg/kg/injection, schedule: Q04DX003 (ip), vehicle: saline): 0 of 6
survivor count (dose: 200.0 mg/kg/injection, schedule: Q01DX001 (ip), vehicle: carboxymethylcellulose (CMC)): 1 of 4
survivor count (dose: 400.0 mg/kg/injection, schedule: Q01DX001 (ip), vehicle: carboxymethylcellulose (CMC)): 1 of 4

Cc1ccc(Nc2ccc([N+](=O)[O-])cc2)cc1
survivor count (dose: 400.0 mg/kg/injection, schedule: Q01DX001 (ip), vehicle: gum acacia): 3 of 6

Cc1cc(C)c(NC(=O)Nc2cccc(Cl)c2)c(C)c1
survivor count [1]: 4 of 6

CC(C#N)N(C)C (stereo unspecified)
survivor count [2]: 0 of 4
survivor count [3]: 0 of 4
survivor count [4]: 0 of 4
survivor count [5]: 0 of 4
survivor count [6]: 0 of 4
survivor count [7]: 0 of 4

O=C(/C=C\C(=O)Nc1ccc(C2=NCCN2)cc1)Nc1ccc(C2=NCCN2)cc1
survivor count (dose: 120.0 mg/kg/injection, schedule: Q01DX Z (ip), vehicle: saline): 1 of 6

CCCCCCCCCCCCCCNCCCCCCCCCCCCCC
survivor count [8]: 0 of 6

C=CCOB(OCC=C)OCC=C
survivor count [9]: 0 of 6

COc1cc(O)c2c(c1)Cc1cc(C)cc(O)c1C2=O
survivor count [10]: 3 of 3
survivor count [11]: 3 of 3
survivor count [12]: 0 of 3
survivor count [13]: 0 of 3

CC(C)(C)NC(=O)C1CCCC(C(=O)NC(C)(C)C)C1 (stereo unspecified)
survivor count [9]: 6 of 6

COc1ccc(COC(=O)Nc2ccccc2C(F)(F)F)cc1
survivor count (dose: 400.0 mg/kg/injection, schedule: Q01DX009 (ip), vehicle: gum acacia): 3 of 6

O=C1COC(=O)CO1
survivor count [14]: 0 of 6

NC(CSSCC(N)=NCc1ccccc1)=NCc1ccccc1
survivor count (dose: 100.0 mg/kg/injection, schedule: Q04DX003 (ip), vehicle: saline with Tween-80): 0 of 6
survivor count [15]: 0 of 6
survivor count [16]: 0 of 6

O=Cc1cc(C(=O)c2ccccn2)c2cc(Cl)cc(Cl)c2n1
survivor count [1]: 2 of 6

CC1(C)N=C(N)N=C(N)N1c1ccc(CCCCc2ccc(Cl)cc2Cl)cc1
survivor count [2]: 0 of 4
survivor count [3]: 1 of 4
survivor count [4]: 0 of 4
survivor count [5]: 1 of 6 and 2 of 4
survivor count [6]: 0 of 4 and 0 of 6
survivor count [7]: 0 of 4 and 0 of 6

CCCCCCCCCCCCCCCCS(=O)(=O)c1ccc(S(=O)(=O)F)cc1NC(=O)C(F)(F)F
survivor count [16]: 6 of 6

CC[CH2][Pb]([CH2]CC)([CH2]CC)[O]C(=O)C(Cl)(Cl)Cl
survivor count [17]: 6 of 6
survivor count (dose: 18.0 mg/kg/injection, schedule: Q01DX009 (ip), vehicle: Klucel (hydroxypropylcellulose) (HPC)): 2 of 6
survivor count (dose: 25.0 mg/kg/injection, schedule: Q04DX002 (ip), vehicle: Klucel (hydroxypropylcellulose) (HPC)): 1 of 3
survivor count (dose: 28.0 mg/kg/injection, schedule: Q01DX009 (ip), vehicle: Klucel (hydroxypropylcellulose) (HPC)): 0 of 6
survivor count (dose: 40.0 mg/kg/injection, schedule: Q01DX009 (ip), vehicle: Klucel (hydroxypropylcellulose) (HPC)): 0 of 6
survivor count [10]: 0 of 3
survivor count [11]: 3 of 3
survivor count [12]: 2 of 3
survivor count [13]: 0 of 3

Clc1cccc(C[P+](c2ccccc2)(c2ccccc2)c2ccccc2)c1
survivor count [17]: 3 of 6
survivor count (dose: 25.0 mg/kg/injection, schedule: Q01DX009 (ip), vehicle: Klucel (hydroxypropylcellulose) (HPC)): 0 of 6
survivor count (dose: 50.0 mg/kg/injection, schedule: Q01DX009 (ip), vehicle: Klucel (hydroxypropylcellulose) (HPC)): 0 of 6
survivor count (dose: 50.0 mg/kg/injection, schedule: Q04DX003 (ip), vehicle: Klucel (hydroxypropylcellulose) (HPC)): 0 of 6
survivor count (dose: 100.0 mg/kg/injection, schedule: Q04DX003 (ip), vehicle: Klucel (hydroxypropylcellulose) (HPC)): 0 of 6
survivor count (dose: 200.0 mg/kg/injection, schedule: Q04DX003 (ip), vehicle: Klucel (hydroxypropylcellulose) (HPC)): 0 of 6
survivor count [18]: 0 of 6

CCCCOP(=O)(OCCCC)SCl
survivor count (dose: 400.0 mg/kg/injection, schedule: Q04DX002 (ip), vehicle: saline with Tween-80): 0 of 3

O=C(N/N=C/c1cccc2ccccc12)c1cccnc1
survivor count [8]: 6 of 6
survivor count [1]: 1 of 6

CN(C)CC1C2C=CC(C3CC23)C1CN(C)C (stereo unspecified)
survivor count [18]: 0 of 6

CCOS(C)(=O)=O
survivor count (dose: 400.0 mg/kg/injection, schedule: Q04DX003 (ip), vehicle: alcohol): 3 of 6

COc1ccc(C2(OC)Oc3cc(OC)ccc3C(=O)C2(O)OC)cc1 (stereo unspecified)
survivor count [6]: 0 of 4
survivor count [7]: 0 of 4

CCN(CC)CCNC(=O)Nc1ccc(OC)cc1
survivor count [1]: 0 of 6

COc1cc2ccc(C(C)N)cc2cc1OC (stereo unspecified)
survivor count (dose: 400.0 mg/kg/injection, schedule: Q04DX003 (ip), vehicle: saline): 1 of 6

FC(F)(F)c1cccc(P(c2cccc(C(F)(F)F)c2)c2ccccc2C(F)(F)F)c1
survivor count [15]: 6 of 6

O=C(O)C(=C(c1ccccc1)c1ccccc1)c1cccc2ccccc12
survivor count [8]: 4 of 6
survivor count [1]: 0 of 6

OC(CBr)c1ccc(Cl)cc1 (stereo unspecified)
survivor count (dose: 400.0 mg/kg/injection, schedule: Q01DX009 (ip), vehicle: saline with Tween-80): 6 of 6

Cc1cc2cc3c(=O)[nH]c(=O)nc-3n(CC(O)C(O)C(O)COP(=O)(O)O)c2cc1C (stereo unspecified)
survivor count (dose: 200.0 mg/kg/injection, schedule: Q01DX009 (ip), vehicle: saline): 4 of 6
survivor count [14]: 0 of 6
